Measurements as given in publication doi:10.1101/2022.10.05.510979.
Results are given in words; binding and its absence hold for the method and conditions named. Binding seen in cells or lysates may run through a third protein. Some binding calls cover weakened binding; strength is not graded here.

Key:
[1] = target: T1, biotinylated Wbp1 (WW domain binding protein 1) oligopeptide …; assay: pull-down
T1 sequence (peptide, biotin (position not stated)): SGSGGTPPPPYTVG

[2] = target: T2, biotinylated Dvl2 (Dishevelled segment polarity protein 2) oligopeptide …; assay: pull-down
T2 sequence (peptide, biotin (position not stated)): HPYSPQPPPYHELSSY

B1: Wwox (WW domain-containing oxidoreductase), wildtype, from Wwox^WT/WT mice (protein, UniProt Q91WL8 1-414)
chain: MAALRYAGLDDTDSEDELPPGWEERTTKDGWVYYANHTEEKTQWEHPKTGKRKRVAGDLPYGWEQETDENGQVFFVDHINKRTTYLDPRLAFTVDDNPTKPTTRQRYDGSTTAMEILQGRDFTGKVVLVTGANSGIGFETAKSFALHGAHVILACRNLSRASEAVSRILEEWHKAKVEAMTLDLAVLRSVQHFAEAFKAKNVSLHVLVCNAGTFALPWGLTKDGLETTFQVNHLGHFYLVQLLQDVLCRSSPARVIVVSSESHRFTDINDSSGKLDLSRLSPPRSDYWAMLAYNRSKLCNILFSNELHRRLSPRGVTSNAVHPGNMMYSAIHRNSWVYKLLFTLARPFTKSMQQGAATTVYCAVAPELEGLGGMYFNNCCRCLPSEEAQSEETARALWELSERLIQDRLGSPSS
In the case of B1, the binding [1] is reported as “binds” and the binding [2] is reported as “binds”.
